Measured values taken from paper PMC5440646, “T Cell Costimulation by CD6 Is Dependent on Bivalent Binding of a GADS/SLP-76 Complex” (Molecular and Cellular Biology, 2017).
These are yes or no findings as the source states them, for the method shown. Binding seen in cells or lysates may run through a third protein. A yes stands for co-enrichment or nearness to the bait. Other partners may have been found. For some assays here: A no says only that the protein was not detected with the bait.

Tests used:
[1] = molecular target: T1, control peptide (biotin-…); test: affinity purification with mass spectrometry; biotinylated peptide (50 μg) on Dynabeads M-280 streptavidin, multivalent; lysates of Jurkat T cells stimulated with ionomycin and PMA for 24 h; 18 h at 4°C; washed with 0.1% Triton X-100 in PBS; only the target purified
T1 sequence (peptide, biotin on the N-terminus): HVDNEYSQPPRNS

[2] = molecular target: T2, CD6 pY629 peptide (biotin-SSGEWpYQNFQP) (human); test: as above
T2 sequence (peptide, biotin on the N-terminus; phosphotyrosine at Y629): SSGEWYQNFQP

B1: GRB2-related adaptor downstream of Shc (GADS), endogenous (protein, UniProt O75791 1-330)
chain: MEAVAKFDFTASGEDELSFHTGDVLKILSNQEEWFKAELGSQEGYVPKNFIDIQFPKWFHEGLSRHQAENLLMGKEVGFFIIRASQSSPGDFSISVRHEDDVQHFKVMRDNKGNYFLWTEKFPSLNKLVDYYRTNSISRQKQIFLRDRTREDQGHRGNSLDRRSQGGPHLSGAVGEEIRPSMNRKLSDHPPTLPLQQHQHQPQPPQYAPAPQQLQQPPQQRYLQHHHFHQERRGGSLDINDGHCGTGLGSEMNAALMHRRHTDPVQLQAAGRVRWARALYDFEALEDDELGFHSGEVVEVLDSSNPSWWTGRLHNKLGLFPANYVAPMTR
**Q.** With B1 as the binder, how does the binding [1] read?
**A.** no binding

**Q.** And the binding [2]?
**A.** binds
